The results in this text go back to patent publication US20260217701A1, “SELECTIVE BET INHIBITORS AND USES THEREOF” (Tay Therapeutics Limited, priority 2022, published 2026).

Test [1] deals with IL-22. Briefly: IL-22 release from activated human PBMCs (ELISA). Type of test: cell-based. Particulars: Compound Conc. 0.003703704 μM; Donors 1-6, two values per donor. The procedure: Human PBMCs used to analyze inhibition of CXCL10 were collected from 8 donors, PBMCs used to analyze inhibition of IL-17A were collected from 7 donors, and PBMCs used to analyze inhibition of IL-22 were collected from 6 donors. Compounds were serially diluted in 10 mM DMSO and further diluted in assay media to 100× the required final concentration, of which 2 μL was added to the specified well. […] The cell culture supernatant was collected and levels of IL-17A and IL-22 in the supernatant were assessed by ELISA (Invitrogen).
On the technique in general: ELISA stands for enzyme-linked immunosorbent assay.

The subject of test [2] is imiquimod-induced psoriasis. In words: Imiquimod-induced psoriasis model. In kind it is in vivo, mice. The conditions noted are these: individual animals. The text has this:
Imiquimod-induced psoriasis is a model of psoriasis in mice that induces psoriasis-like dermatitis. The pathology closes resembles human plaque-type psoriasis and is a valuable tool for testing new therapies against psoriasis. […] Compound A was formulated in a 5% DMSO/40% PEG-400/55% (0.9% NaCl w/v water) solution (Table 2F). Experimental groups for the study are outlined in Table 4. Prior to study initiation, the backs of all animals in the study were depilated to allow for induction of psoriasis and monitoring of disease progression.
Once assigned to experimental groups, on Day 1 and continuing through Day 14, topical imiquimod (IMI; Aldara™ containing 5% Imiquimod) was administered to the dorsal depilated animals, and animals in group 1 received topical administration of Excipial® hydrocream (65 mg). […] Clobetasol was applied topically for animals in group 11.
Body weights were recorded three times a week from Day 1 to Day 8, and daily from Day 8 until the study end at Day 15. At termination on D15 the spleen weight ratio was determined. Disease severity was assessed using the psoriasis area severity index (PASI) daily from Day 8 until study completion on Day 15. The PASI score was calculated based on three parameters (presence of erythema, induration of the skin, and peeling of the skin at the area of induction) on a scale of 0 to 4 (0=no more or absence, 1=low, 2=moderate, 3=high, 4=severe). The PASI score for each animal was calculated as the sum of the score of each parameter measured. The score of the use of enrichment (SUE) was also assessed daily from Day 8 to Day 15. At study completion on Day 15, animal behavior was evaluated using an open field to assess distance travelled, number scratching, and licking and rearing performed in 10 minutes. Upon study termination animals were sacrificed, the spleen was excised and weighed, and blood samples were collected. Serum was isolated from the blood sample for cytokine and other biomarker analysis. IL-1B, IL-6, IL-17, and TNF-α assayed using simple plex technique on an ELLA automated immunoassay system. IL-22 and IL-23 were assayed by ELISA.
The imiquimod-induced model of psoriasis was used to assess the efficacy of Compound A in treating psoriasis. […] Treatment started on Day 8 after induction so reference to day 1 of treatment is to Day 8 and day 7 of treatment is to Day 14.

Values joined by “and” are separate entries in the source; they are usually repeats but may differ in a detail not shown here. Equal values may be shown once. This continues a long series; more values of the same kind are listed elsewhere.

Consider `Cn1cc(-c2ccccc2)c(-c2cn(C)c(=O)c3[nH]c(-c4cnn(C(F)(F)F)c4)cc23)cc1=O` [Compound A, 6-methyl-4-(1-methyl-2-oxo-5-phenyl-1,2-dihydropyridin-4-yl)-2-(1-(trifluoromethyl)-1H-pyrazol-4-yl)-1,6-dihydro-7H-pyrrolo[2,3-c]pyridin-7-one], for which the “Percent Inhibition Relative to Control (IL-22)” value in test [1] was 68.04% and 61.67% and 51.81% and 80.73% and 79.65% and 75.51% and 62.59% and 54.19%. The “PASI Scores” value in test [2] (IMI + Compound A 3 mg/kg, D9, 3 mg/kg) was 7; in test [2] (IMI + Compound A 3 mg/kg, D13, 3 mg/kg), 3 and 1; in test [2] (IMI + Compound A 10 mg/kg, D8 (day treatment started), 10 mg/kg), 6 and 9 and 7 (3×) and 5 and 8 (2×); in test [2] (IMI + Compound A 10 mg/kg, D9, 10 mg/kg) it was 3 (2×) and 6 (2×) and 8 and 4 and 5 and 7; in test [2] (IMI + Compound A 10 mg/kg, D10, 10 mg/kg), 2 and 4 (2×) and 5 (3×) and 3 and 6; in test [2] (IMI + Compound A 10 mg/kg, D11, 10 mg/kg), 5 (3×) and 6 and 3 (2×) and 4 (2×). The “PASI Scores” value in test [2] (IMI + Compound A 10 mg/kg, D12, 10 mg/kg) is 5 and 3 and 1 and 2 (3×) and 4 (2×); in test [2] (IMI + Compound A 10 mg/kg, D13, 10 mg/kg) it was 2 (4×) and 1 (4×); in test [2] (IMI + Compound A 10 mg/kg, D14, 10 mg/kg), 1 (5×) and 0 (3×); in test [2] (IMI + Compound A 10 mg/kg, D15, 10 mg/kg), 0 (5×) and 1 (3×).
